Source: the supplement of paper PMC11732987, “Enantioselective OTUD7B fragment discovery through chemoproteomics screening and high-throughput optimisation” (Communications Chemistry, 2025)
The other results are listed elsewhere or left out. The data scatter; read single values as rough.

The chains behind the UniProt entries cited, without tags or fusion partners. Where a name states a change or a piece, a line headed by the entry shows the natural chain unless it says otherwise. Residues count along the entry.
UniProt A6NKD9: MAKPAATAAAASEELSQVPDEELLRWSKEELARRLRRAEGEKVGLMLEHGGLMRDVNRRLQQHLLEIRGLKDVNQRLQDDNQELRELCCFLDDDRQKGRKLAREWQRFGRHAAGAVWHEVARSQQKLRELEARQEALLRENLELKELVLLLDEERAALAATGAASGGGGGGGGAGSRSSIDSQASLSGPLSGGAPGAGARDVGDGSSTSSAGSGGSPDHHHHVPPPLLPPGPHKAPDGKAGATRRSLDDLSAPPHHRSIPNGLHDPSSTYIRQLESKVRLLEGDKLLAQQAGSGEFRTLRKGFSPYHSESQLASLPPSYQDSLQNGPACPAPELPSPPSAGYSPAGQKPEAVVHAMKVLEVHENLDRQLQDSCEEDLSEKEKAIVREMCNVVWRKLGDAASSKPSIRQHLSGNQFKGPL
UniProt Q9NSP4: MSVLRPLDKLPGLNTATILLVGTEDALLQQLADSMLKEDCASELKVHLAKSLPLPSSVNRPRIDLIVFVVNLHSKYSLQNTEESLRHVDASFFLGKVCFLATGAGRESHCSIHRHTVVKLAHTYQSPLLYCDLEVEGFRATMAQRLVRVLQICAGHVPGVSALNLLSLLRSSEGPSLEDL
UniProt Q9UQ88: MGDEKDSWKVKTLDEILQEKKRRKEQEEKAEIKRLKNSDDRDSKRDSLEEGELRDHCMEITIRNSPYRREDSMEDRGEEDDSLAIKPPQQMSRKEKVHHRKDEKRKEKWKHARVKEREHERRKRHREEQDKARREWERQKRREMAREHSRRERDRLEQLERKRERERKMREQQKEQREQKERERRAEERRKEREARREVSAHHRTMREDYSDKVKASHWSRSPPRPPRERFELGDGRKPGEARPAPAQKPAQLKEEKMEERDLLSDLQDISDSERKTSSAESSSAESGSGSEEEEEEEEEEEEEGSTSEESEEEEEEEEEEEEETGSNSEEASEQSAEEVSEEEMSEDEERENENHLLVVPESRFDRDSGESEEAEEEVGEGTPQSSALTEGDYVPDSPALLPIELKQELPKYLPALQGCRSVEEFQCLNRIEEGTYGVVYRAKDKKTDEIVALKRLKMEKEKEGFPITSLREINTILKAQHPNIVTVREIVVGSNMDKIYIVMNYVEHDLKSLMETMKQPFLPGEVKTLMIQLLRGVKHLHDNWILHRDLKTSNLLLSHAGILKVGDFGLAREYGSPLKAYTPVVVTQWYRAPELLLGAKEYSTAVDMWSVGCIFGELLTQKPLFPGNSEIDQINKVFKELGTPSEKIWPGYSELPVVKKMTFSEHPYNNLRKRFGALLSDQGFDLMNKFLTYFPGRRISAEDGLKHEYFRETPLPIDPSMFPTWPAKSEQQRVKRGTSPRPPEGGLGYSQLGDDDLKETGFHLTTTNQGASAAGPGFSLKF
UniProt Q5VT06: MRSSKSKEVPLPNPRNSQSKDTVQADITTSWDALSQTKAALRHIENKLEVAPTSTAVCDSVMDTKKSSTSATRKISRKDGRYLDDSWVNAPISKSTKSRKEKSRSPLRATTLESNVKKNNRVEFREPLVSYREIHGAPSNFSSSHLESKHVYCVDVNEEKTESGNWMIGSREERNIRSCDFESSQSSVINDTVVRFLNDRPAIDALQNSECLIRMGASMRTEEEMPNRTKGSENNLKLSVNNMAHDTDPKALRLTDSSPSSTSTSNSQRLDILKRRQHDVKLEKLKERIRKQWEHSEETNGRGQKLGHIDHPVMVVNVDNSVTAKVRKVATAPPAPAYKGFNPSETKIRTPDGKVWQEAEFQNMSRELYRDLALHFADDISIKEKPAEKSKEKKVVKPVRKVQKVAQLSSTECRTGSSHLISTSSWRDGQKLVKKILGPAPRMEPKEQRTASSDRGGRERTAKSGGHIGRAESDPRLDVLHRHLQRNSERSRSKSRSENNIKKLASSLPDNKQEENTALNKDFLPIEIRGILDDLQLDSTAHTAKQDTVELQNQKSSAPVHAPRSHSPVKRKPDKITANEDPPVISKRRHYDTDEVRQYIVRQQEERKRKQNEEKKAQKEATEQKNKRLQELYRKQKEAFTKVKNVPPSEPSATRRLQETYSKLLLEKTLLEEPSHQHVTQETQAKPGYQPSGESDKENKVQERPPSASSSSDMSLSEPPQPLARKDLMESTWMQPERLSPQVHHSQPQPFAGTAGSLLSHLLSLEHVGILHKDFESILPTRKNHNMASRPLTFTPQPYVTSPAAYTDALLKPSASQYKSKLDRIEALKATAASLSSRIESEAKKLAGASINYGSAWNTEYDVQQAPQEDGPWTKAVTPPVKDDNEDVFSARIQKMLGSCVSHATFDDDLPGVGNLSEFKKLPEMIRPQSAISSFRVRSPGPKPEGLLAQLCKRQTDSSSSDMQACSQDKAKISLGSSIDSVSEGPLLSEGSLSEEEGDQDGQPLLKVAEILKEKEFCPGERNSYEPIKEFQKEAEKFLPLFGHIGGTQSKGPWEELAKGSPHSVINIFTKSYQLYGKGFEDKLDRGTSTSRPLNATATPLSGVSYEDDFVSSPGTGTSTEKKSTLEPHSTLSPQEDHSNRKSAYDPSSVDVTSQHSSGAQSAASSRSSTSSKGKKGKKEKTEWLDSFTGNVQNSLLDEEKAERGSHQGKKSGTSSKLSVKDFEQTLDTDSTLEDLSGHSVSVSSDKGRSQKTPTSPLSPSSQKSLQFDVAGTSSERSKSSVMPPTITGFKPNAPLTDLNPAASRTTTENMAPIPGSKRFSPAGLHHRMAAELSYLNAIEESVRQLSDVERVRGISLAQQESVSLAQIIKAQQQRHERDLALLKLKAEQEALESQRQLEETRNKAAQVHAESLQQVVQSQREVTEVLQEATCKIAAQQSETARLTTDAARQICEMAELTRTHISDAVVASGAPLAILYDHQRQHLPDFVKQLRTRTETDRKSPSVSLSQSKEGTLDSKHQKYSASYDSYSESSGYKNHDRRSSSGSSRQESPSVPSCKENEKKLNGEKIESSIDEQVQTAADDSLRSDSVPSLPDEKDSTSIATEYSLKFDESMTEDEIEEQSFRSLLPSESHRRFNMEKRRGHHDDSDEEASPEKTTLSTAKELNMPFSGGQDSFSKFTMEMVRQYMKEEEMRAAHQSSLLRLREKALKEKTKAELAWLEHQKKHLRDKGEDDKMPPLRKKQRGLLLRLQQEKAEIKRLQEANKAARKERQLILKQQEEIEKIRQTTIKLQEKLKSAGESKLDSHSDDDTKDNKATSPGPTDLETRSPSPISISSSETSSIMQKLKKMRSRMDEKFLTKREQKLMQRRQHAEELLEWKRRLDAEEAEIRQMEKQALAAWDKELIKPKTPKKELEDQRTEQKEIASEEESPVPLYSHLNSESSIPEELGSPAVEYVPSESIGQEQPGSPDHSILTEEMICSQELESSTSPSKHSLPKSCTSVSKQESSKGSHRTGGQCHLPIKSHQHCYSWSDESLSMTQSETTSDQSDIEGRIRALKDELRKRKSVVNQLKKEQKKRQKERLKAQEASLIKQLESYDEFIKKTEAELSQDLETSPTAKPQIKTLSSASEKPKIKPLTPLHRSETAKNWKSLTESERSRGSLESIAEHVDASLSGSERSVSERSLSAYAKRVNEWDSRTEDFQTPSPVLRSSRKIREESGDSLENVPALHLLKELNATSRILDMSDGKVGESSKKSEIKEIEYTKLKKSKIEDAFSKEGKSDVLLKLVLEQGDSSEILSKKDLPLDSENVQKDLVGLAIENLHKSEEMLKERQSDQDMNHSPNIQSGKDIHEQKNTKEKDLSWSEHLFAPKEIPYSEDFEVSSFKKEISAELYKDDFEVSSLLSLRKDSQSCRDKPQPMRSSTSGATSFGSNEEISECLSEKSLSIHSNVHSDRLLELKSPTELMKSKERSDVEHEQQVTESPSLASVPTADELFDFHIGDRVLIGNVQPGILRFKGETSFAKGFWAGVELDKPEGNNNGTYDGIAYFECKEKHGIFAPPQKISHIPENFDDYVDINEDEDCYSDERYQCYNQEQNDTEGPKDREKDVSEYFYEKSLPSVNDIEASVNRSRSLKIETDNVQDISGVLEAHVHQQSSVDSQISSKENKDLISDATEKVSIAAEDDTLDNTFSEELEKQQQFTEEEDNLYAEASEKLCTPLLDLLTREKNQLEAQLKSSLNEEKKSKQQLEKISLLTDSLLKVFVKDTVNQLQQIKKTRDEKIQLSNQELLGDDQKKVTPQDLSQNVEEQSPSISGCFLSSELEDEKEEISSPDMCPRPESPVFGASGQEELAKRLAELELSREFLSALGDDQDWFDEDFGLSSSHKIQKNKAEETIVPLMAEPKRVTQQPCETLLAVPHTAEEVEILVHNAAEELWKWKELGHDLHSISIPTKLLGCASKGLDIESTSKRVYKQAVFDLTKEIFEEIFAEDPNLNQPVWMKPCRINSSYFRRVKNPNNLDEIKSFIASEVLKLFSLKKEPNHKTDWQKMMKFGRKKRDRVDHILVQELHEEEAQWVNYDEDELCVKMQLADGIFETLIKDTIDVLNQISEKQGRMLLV
UniProt Q96FF9, 194-214: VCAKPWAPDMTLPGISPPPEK
UniProt Q69YH5: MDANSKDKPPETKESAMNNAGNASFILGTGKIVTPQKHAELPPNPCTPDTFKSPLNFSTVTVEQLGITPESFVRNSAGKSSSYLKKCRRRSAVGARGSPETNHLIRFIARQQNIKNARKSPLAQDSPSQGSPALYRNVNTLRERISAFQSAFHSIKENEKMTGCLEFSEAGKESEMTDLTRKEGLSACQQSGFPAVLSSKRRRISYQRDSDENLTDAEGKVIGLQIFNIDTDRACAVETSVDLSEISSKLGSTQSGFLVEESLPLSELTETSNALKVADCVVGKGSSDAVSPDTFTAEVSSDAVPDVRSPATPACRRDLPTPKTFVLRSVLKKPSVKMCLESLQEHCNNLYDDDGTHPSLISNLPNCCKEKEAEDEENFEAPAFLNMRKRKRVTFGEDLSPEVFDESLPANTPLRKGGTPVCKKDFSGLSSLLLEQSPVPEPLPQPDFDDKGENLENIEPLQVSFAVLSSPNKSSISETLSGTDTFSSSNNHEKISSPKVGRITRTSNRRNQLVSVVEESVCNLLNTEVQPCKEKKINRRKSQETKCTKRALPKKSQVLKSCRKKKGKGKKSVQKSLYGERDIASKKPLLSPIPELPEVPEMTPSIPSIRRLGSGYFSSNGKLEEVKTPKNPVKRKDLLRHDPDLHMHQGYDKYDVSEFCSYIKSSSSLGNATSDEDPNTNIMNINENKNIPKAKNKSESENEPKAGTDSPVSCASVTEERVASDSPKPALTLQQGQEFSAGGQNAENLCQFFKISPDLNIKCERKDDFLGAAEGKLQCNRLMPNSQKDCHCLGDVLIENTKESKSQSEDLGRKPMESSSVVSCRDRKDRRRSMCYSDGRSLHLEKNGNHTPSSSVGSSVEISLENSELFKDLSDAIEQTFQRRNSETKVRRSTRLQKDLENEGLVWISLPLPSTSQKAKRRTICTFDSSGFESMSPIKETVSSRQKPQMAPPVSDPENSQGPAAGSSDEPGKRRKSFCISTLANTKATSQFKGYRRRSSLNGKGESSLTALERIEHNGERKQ
UniProt O95067, whole entry, looked up: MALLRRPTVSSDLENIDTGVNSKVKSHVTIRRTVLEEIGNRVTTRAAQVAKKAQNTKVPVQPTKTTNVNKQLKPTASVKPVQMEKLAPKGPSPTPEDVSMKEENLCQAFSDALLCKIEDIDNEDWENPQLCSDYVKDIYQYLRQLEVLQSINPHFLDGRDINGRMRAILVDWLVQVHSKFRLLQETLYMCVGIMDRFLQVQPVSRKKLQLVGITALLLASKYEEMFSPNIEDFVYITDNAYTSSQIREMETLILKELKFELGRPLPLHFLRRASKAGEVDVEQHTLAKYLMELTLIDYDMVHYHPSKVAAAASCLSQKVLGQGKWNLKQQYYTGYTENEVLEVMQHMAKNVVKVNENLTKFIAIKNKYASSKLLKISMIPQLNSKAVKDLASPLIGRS
UniProt Q92903: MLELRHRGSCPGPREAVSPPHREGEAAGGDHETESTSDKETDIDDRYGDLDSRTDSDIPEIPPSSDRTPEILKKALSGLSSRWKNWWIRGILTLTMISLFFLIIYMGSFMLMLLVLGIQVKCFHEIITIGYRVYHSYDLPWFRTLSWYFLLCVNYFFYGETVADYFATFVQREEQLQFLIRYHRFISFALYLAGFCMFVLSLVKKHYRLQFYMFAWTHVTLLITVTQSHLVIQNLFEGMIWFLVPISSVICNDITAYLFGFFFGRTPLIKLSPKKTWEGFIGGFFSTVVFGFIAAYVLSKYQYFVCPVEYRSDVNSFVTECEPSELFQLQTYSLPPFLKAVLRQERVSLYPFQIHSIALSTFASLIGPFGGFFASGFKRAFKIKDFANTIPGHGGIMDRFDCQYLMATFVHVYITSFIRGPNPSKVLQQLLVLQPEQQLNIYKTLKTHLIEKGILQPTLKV

Columns and labels:
[1] = compound: ClCC(=O)N[C@@H]1CCCc2ccccc12; experiment: log2 mean competition ratio of IA-DTB cysteine labelling (DMSO/compound) (log2 ratio); higher = stronger cysteine engagement by compound; settings: treatment time: 4 h, cell line lysate: HEK293T
Experimental: (§1)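 IA-DTB competitive cysteine chemoproteomics in HEK293T RIPA lysate. Lysates were treated with compound 29 or 30 at 50 or 200 µM for 4 h, then IA-DTB (500 µM, 1 h), trypsin-digested, NeutrAvidin-enriched and analysed by diaPASEF. Competition ratio = intensity DMSO / intensity compound (n=4 treated, n=64 DMSO); binding: mean log2 CR ≥ 1 and p ≤ 0.05 plus QC filters. Target is the cysteine site.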

[2] = compound: ClCC(=O)N[C@H]1CCCc2ccccc12; experiment: as above; settings: treatment time: 4 h, cell line lysate: HEK293T
Experimental: as §1

Target | log2 mean competition ratio ([1]; 50 µM) | log2 mean competition ratio ([1]; 200 µM) | log2 mean competition ratio ([2]; 50 µM) | log2 mean competition ratio ([2]; 200 µM)
CEP43 C244 | -0.439 | -0.0189 | -0.233 | 0.102
CERK C50 | -0.33 | 0.0111 | -0.406 | 0.152
CEP152 C101 (UniProt O94986) | 0.0133 | 0.0571 | – | 0.0495
CDK2AP1;CDK2AP2 C105;(C116) | -0.162 | 0.168 | 0.126 | 0.303
CDIN1 C14 | -0.282 | -0.264 | -0.363 | -0.0767
CDK5RAP2 C528 (UniProt Q96SN8) | -0.000374 | 0.137 | -0.101 | 0.000202
CDK14 C100 | -0.0583 | 0.158 | -0.544 | 0.344
CDC123 C212 (UniProt O75794) | 0.0462 | -0.228 | -0.282 | -0.282
CCDC85C C389 (UniProt A6NKD9) | 0.0901 | 0.43 | – | 0.31
CENPM C110 (UniProt Q9NSP4) | 0.508 | -0.534 | -0.0493 | -0.404
CDK11A C428 (UniProt Q9UQ88) | 0.165 | -0.0142 | 0.369 | 0.0144
CEP162 C1235 (UniProt Q5TB80) | 0.138 | -0.254 | -0.111 | 0.039
CHD2 C415 (UniProt O14647) | 0.0539 | 0.656 | -0.0301 | 0.57
CEP350 C2956 (UniProt Q5VT06) | -0.103 | 0.151 | -0.0679 | 0.0447
CDCA5 C195 (UniProt Q96FF9) | 0.416 | 0.118 | 0.493 | 0.284
CDC123 C170 (UniProt O75794) | -0.217 | -0.419 | -0.284 | -0.309
CDCA2 C235 (UniProt Q69YH5) | -0.335 | -0.314 | 0.101 | -0.407
CCT7 C345 (UniProt Q99832) | -0.129 | -0.0101 | 0.492 | -0.0707
CCNB2 C314 (UniProt O95067) | 0.1 | 0.0117 | 0.413 | 0.0245
CDC5L C96 (UniProt Q99459) | 0.272 | -0.00933 | -0.138 | -0.236
CERS5 C369 (UniProt Q8N5B7) | 0.373 | 0.443 | -0.361 | 0.77
CHAF1A C761 (UniProt Q13111) | -0.228 | 0.0622 | 0.0529 | -0.162
CEP162 C578 (UniProt Q5TB80) | 0.203 | 0.38 | 0.142 | 0.00561
CDS1 C10 (UniProt Q92903) | 0.0758 | 0.0344 | -0.151 | -0.025
